Source: US9862925B2, “Human stem cell-derived neural precursors for treatment of autoimmune diseases of the central nervous system” (Hadasit Medical Research Services & Development Limited, priority 2007, dated 2018)
For at least one compound, name, drawing or mass did not settle the structure.

Test system: hESCs
Test: In vitro oligodendroglial differentiation of hESCs following retinoic acid treatment
Type: cell-based, human
Details: RA treatment, three weeks propagation, even after 7-10 days of differentiation
Method: Derivation of enriched population of committed oligodendrocyte progenitor cells (OPCs): Initial neural differentiation of hESC was induced as described above for the derivation of enriched population of uncommitted neural precursors. Following two weeks of culturing of hESC clusters in NPM supplemented with noggin (700 ng/ml), and the oligodendroglial mitogens bFGF (20 ng/ml) and EGF (20 ng/ml), the cultures were treated with retinoic acid (RA) (sigma) (10 μM) to induce caudal specification of the neuralized cells. […]
In vitro oligodendroglial differentiation of hESCs was examined. […] After two weeks, they were treated with retinoic acid (RA) and propagated as floating spheres in modified Sato medium and mitogens At sequential week intervals, differentiation was induced by plating on fibronectin and withdrawal of the mitogens, and the expression of oligodendroglial markers were analyzed by immunostaining. […] Although at this stage of three weeks propagation, when enrichment for OPCs was obtained, markers of mature oligodendrocytes such as O4 and GalC were not detected, even after 7-10 days of differentiation. […]

SMILES: CC1=C(/C=C/C(C)=C/C=C/C(C)=C/C(=O)O)C(C)(C)CCC1 [retinoic acid]
- markers of mature oligodendrocytes O4 and GalC: not detected
